PubChem BioAssay AID1508597 – Cure First | 2020

Assay: 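Survival screen with siRNA in ovarian cancer cells derived from patients, with or without rucaparib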 (primary screen)
System: human ovarian carcinoma lines grown from tumours: OCI-P5x (papillary serous) and OCI-C5x (clear cell)
Reagents: siRNA pool against human genes, 1.25 pmol siRNA per well
Time to read-out: 72 h or 96 h, depending on the cell culture
Challenge: rucaparib 20 µM (about IC30) or vehicle, present until read-out
Rucaparib or vehicle: Rucaparib
Cell line: OCI-P5x (serous)
Measurement: 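Luminescent ATP-based viability assay read 72 or 96 h after transfection, depending on culture, given as normalised percent viability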
Reading the numbers: viability, normalised: higher = more viable cells remaining
Call rule: 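a well counts as a hit if its normalised viability is under 80 percent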
Calls: active = viability under 80%; inactive = viability 80% or more
This is a random part of the about 2,100 reagents, under one of the conditions tested. 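Calls flag viability under 80% in either arm, not effects specific to rucaparib; the reference for percent is not stated.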 Unmarked entries are inactive. The record does not give: the 100% reference.

CDYL, technical replicate 1
- viability, normalised (%): 56.4 (active)

CDYL, technical replicate 2
- viability, normalised (%): 62.7 (active)

CDYL, technical replicate 3
- viability, normalised (%): 47.4 (active)

AK9, technical replicate 1
- viability, normalised (%): 67 (active)

AK9, technical replicate 2
- viability, normalised (%): 65.8 (active)

AK9, technical replicate 3
- viability, normalised (%): 65.5 (active)

IRS2, technical replicate 1
- viability, normalised (%): 40.3 (active)

IRS2, technical replicate 2
- viability, normalised (%): 44.4 (active)

IRS2, technical replicate 3
- viability, normalised (%): 41.6 (active)

ULK4, technical replicate 1
- viability, normalised (%): 67 (active)

ULK4, technical replicate 2
- viability, normalised (%): 84.7

ULK4, technical replicate 3
- viability, normalised (%): 69.5 (active)

FOXF2, technical replicate 1
- viability, normalised (%): 72.9 (active)

FOXF2, technical replicate 2
- viability, normalised (%): 82.1

FOXF2, technical replicate 3
- viability, normalised (%): 84.6

ASH2L, technical replicate 1
- viability, normalised (%): 53.6 (active)

ASH2L, technical replicate 2
- viability, normalised (%): 73.5 (active)

ASH2L, technical replicate 3
- viability, normalised (%): 82.2

H2AX, technical replicate 1
- viability, normalised (%): 55.4 (active)

H2AX, technical replicate 2
- viability, normalised (%): 51.7 (active)

H2AX, technical replicate 3
- viability, normalised (%): 57.7 (active)

BHLHE40, technical replicate 1
- viability, normalised (%): 63.1 (active)

BHLHE40, technical replicate 2
- viability, normalised (%): 64.8 (active)

BHLHE40, technical replicate 3
- viability, normalised (%): 59.9 (active)

DPH2, technical replicate 1
- viability, normalised (%): 68.6 (active)

DPH2, technical replicate 2
- viability, normalised (%): 66.8 (active)

DPH2, technical replicate 3
- viability, normalised (%): 75.9 (active)

EIF2AK1, technical replicate 1
- viability, normalised (%): 36.6 (active)

EIF2AK1, technical replicate 2
- viability, normalised (%): 61.6 (active)

EIF2AK1, technical replicate 3
- viability, normalised (%): 77.6 (active)

ZDHHC17, technical replicate 1
- viability, normalised (%): 39.4 (active)

ZDHHC17, technical replicate 2
- viability, normalised (%): 43.1 (active)

ZDHHC17, technical replicate 3
- viability, normalised (%): 45.1 (active)
